This is one part of the list. This data set is noisy: repeats of one test often differ as much as different tests do.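 HEK293T cells were given each compound shortly before transfection with a reporter in which red mCherry is followed by the SARS-CoV-2 frameshift element and then GFP in the −1 frame, so GFP appears only after frameshifting.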

The test system of the experiment is HEK293T. Put plainly: percent viability (nuclei count) relative to control; higher = more viable cells. The following applies: 10 µM; 24 h.
Regarding `CN(C)CCOC(=O)C(c1ccccc1)C1(O)CCCC1` (stereo unspecified) [cyclopentolate], the percent viability amounted to 143%.

As to `CCC(C(=O)OCCOCCN(CC)CC)c1ccccc1` (stereo unspecified) [butamirate], the percent viability was 298%.

For `CCCC(CCC)C(=O)O[C@H]1C[C@H]2CC[C@@H](C1)[N+]2(C)C` [Anisotropine Methylbromide], the percent viability worked out at 354%.

Regarding `O=C1/C(=C/c2cccs2)CCC/C1=C\c1cccs1`, the percent viability came to 252%.

For `O=C(Nc1cccc(C(F)(F)F)c1)c1cc(Br)cc(Br)c1O` [flusalan], the percent viability amounted to 128%.

For the compound `CCC[C@@H]1C[C@@H](C(=O)N[C@@H]([C@H]2O[C@H](SC)[C@H](O)[C@@H](O)[C@H]2O)[C@@H](C)O)N(C)C1` [Lincocin], the percent viability was found to be 106%.

Values taken from the supplement of paper PMC8256030.
